# Reference: PubChem BioAssay AID1159578 (Peter MacCallum Cancer Centre, 2015)
# Test: 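Genome-wide hunt for genes controlling movement of lymphatic endothelial cells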 (primary screen)
# Cell system: human lymphatic endothelial cells
# Reagent: siRNA pool against human genes, 40 nM
# Timing: 48 h after transfection
# Read-out: 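Cells stained with dye and imaged after a scratch; covered wound area and nuclei counted, duplicates averaged, migration set against mock wells and turned into a robust z-score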
# Scale: migration robust z-score: higher = faster migration into the scratch; migration relative to mock: higher = more scratch area covered than mock; nuclei per well: higher = more cells in the well
# Hit rule: 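Migration changed when robust z exceeds 2 or falls below -2 and mean nuclei number is at least 3300; otherwise not called changed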
# Calls: active = migration changed; inactive = no migration change, or too few cells
# This is an unselected part of about 18,000 reagents tested. Over the whole deposit, about 1,030 (5.7%) are marked active. 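Inactive calls also include pools with fewer than 3300 nuclei, whose migration was not assessed.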 Raw values vary from plate to plate and are shown uncorrected. Unmarked entries are inactive.
Target gene,migration robust z-score,migration class with cell-count check,migration relative to mock,"nuclei per well, duplicate mean"
BATF,0.96,migration z between -2 and 2; enough cells,0.99,5578
RTP4,1.68,migration z between -2 and 2; enough cells,1.32,5793
GPX2,-0.46,migration z between -2 and 2; enough cells,0.72,5306
OXSM,-0.54,migration z between -2 and 2; enough cells,0.74,6465
AFTPH,-0.1,migration z between -2 and 2; enough cells,0.86,5947
ZNF614,0.56,migration z between -2 and 2; enough cells,1.03,5932
RNASE11,-0.35,migration z between -2 and 2; enough cells,0.8,6612
VPS26B,2.45 (active),migration z above 2; enough cells,1.52,6548
CPS1,1.92,migration z between -2 and 2; enough cells,1.18,5934
E4F1,-0.39,migration z between -2 and 2; enough cells,0.73,4626
OC90,0.73,migration z between -2 and 2; enough cells,0.94,4090
MYH11,-1.06,migration z between -2 and 2; enough cells,0.62,4419
TOMM22,-0.94,migration z between -2 and 2; enough cells,0.64,5799
TDRD3,0.29,migration z between -2 and 2; enough cells,0.96,5898
SPOCK3,0.38,migration z between -2 and 2; enough cells,0.98,6108
UACA,0.06,migration z between -2 and 2; enough cells,0.9,6263
UTP6,-1.91,migration z between -2 and 2; enough cells,0.38,3942
LCE5A,0.52,migration z between -2 and 2; enough cells,1.02,5369
GPRASP1,0.18,migration z between -2 and 2; enough cells,0.84,5376
COL4A1,-0.48,migration z between -2 and 2; enough cells,0.76,5770
ANKRD34A,-0.3,migration z between -2 and 2; enough cells,0.8,6074
BORCS6,-3.77 (active),migration z below -2; enough cells,-0.07,4310
SLC35F4,0.42,migration z between -2 and 2; enough cells,1,5364
FBXL14,-0.1,migration z between -2 and 2; enough cells,0.78,4096
SPATA1,-0.3,migration z between -2 and 2; enough cells,0.8,5954
ADAMTS7,0.36,migration z between -2 and 2; enough cells,0.88,5718
SRP72,0.1,migration z between -2 and 2; enough cells,0.82,5450
ZNF566,0.4,migration z between -2 and 2; enough cells,0.99,6118
IFI44L,0.13,migration z between -2 and 2; enough cells,0.92,5392
SYF2,1.01,migration z between -2 and 2; enough cells,1.15,6334
ABLIM3,-1.39,migration z between -2 and 2; enough cells,0.52,5290
TSLIG2,0.8,migration z between -2 and 2; enough cells,1.09,5374
BEND5,0.6,migration z between -2 and 2; enough cells,1.04,6120
STARD4,0.82,migration z between -2 and 2; enough cells,1.1,5184
OR52H1,-1.38,migration z between -2 and 2; enough cells,0.53,5438
PIK3R4,-4.7,under 3300 nuclei; migration not judged,-0.1,3122
TRIP11,-0.05,migration z between -2 and 2; enough cells,0.8,6824
COL8A1,1.68,migration z between -2 and 2; enough cells,1.32,5900
DNAJC15,0.24,migration z between -2 and 2; enough cells,0.95,5234

Reagents listed so far with an active call (2):
Target gene,migration robust z-score,migration class with cell-count check,migration relative to mock,"nuclei per well, duplicate mean"
VPS26B,2.45 (active),migration z above 2; enough cells,1.52,6548
BORCS6,-3.77 (active),migration z below -2; enough cells,-0.07,4310
